{"source": "paper PMC11844651", "about": "“How RAG1/2 evolved from ancestral transposases to initiate V(D)J recombination without transposition” (Research Square, 2025)", "biological_target": "T1, mouse RAG1 (aa 265–1040) (mouse, UniProt P15919 265-1040)", "T1 sequence (looked up)": "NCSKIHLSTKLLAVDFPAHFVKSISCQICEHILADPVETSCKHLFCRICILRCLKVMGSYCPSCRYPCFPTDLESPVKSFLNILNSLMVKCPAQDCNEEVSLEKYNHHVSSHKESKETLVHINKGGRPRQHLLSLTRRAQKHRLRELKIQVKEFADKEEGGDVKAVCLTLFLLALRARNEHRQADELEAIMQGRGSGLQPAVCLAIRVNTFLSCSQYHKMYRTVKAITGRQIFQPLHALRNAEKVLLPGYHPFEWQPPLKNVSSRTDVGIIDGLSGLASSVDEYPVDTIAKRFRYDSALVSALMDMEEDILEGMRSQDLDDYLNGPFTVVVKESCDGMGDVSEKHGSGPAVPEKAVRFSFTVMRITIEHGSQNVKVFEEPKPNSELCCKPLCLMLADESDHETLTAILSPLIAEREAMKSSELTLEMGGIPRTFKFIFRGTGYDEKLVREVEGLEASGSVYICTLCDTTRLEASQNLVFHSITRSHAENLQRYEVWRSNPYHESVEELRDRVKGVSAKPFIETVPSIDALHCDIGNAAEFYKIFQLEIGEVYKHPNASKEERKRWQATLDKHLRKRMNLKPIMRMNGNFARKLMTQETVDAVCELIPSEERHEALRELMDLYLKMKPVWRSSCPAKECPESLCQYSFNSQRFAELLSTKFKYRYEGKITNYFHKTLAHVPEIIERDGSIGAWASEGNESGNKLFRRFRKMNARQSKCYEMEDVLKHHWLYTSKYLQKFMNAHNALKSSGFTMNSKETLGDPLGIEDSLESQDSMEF", "test": "cryo-EM structure; Signal-End Complex (SEC): MBP-mRAG (RAG1 and RAG2 co-expressed and co-purified), pre-cleaved 12- and 23-RSS signal end DNAs and HMGB1 (aa 1–163) mixed in 20 mM HEPES pH 7.4, 100 mM KCl, 5 mM CaCl2, 37°C 10 min, no H3K4me3 peptide; purified on Superdex 200 Increase; classes SEC-0, SEC-PHD, SEC-1DNA, SEC-2DNA; both purified", "note": "These are yes or no findings as the source states them, for the method shown. Some entries that bind do so weakly or less than the wild type.", "data": [{"binder": "mouse T490A RAG2 (aa 1–520) (natural protein, UniProt P21784 1-520, looked up) MSLQMVTVGHNIALIQPGFSLMNFDGQVFFFGQKGWPKRSCPTGVFHFDIKQNHLKLKPAIFSKDSCYLPPLRYPATCSYKGSIDSDKHQYIIHGGKTPNNELSDKIYIMSVACKNNKKVTFRCTEKDLVGDVPEPRYGHSIDVVYSRGKSMGVLFGGRSYMPSTQRTTEKWNSVADCLPHVFLIDFEFGCATSYILPELQDGLSFHVSIARNDTVYILGGHSLASNIRPANLYRIRVDLPLGTPAVNCTVLPGGISVSSAILTQTNNDEFVIVGGYQLENQKRMVCSLVSLGDNTIEISEMETPDWTSDIKHSKIWFGSNMGNGTIFLGIPGDNKQAMSEAFYFYTLRCSEEDLSEDQKIVSNSQTSTEDPGDSTPFEDSEEFCFSAEATSFDGDDEFDTYNEDDEDDESVTGYWITCCPTCDVDINTWVPFYSTELNKPAMIYCSHGDGHWVHAQCMDLEERTLIHLSEGSNKYYCNEHVQIARALQAPKRNPPLQKPPMKSLHKKGSGKVLTPAKKS", "values": [{"measurement": "binding", "value": "binds"}]}]}
